Results on 1 substance are retold here after paper PMC3908400.

Chains of the proteins cited; added tags and fusions are not shown. Lines headed by an entry give the natural chain unless they say otherwise; changes in a name come on top. A line that says so, or that is headed by a name, gives the form on record, which may keep a tag or linker.
GST-RagB (Q5VZM2, form named): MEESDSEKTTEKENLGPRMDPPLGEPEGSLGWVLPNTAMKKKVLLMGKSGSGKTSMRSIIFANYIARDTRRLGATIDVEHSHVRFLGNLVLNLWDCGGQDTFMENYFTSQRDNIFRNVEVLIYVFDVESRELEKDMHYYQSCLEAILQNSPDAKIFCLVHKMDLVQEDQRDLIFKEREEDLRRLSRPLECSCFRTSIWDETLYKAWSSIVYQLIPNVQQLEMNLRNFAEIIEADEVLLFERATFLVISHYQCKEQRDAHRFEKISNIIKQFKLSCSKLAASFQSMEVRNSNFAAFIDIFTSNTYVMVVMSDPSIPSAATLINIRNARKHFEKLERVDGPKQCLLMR
UniProt Q9HB90: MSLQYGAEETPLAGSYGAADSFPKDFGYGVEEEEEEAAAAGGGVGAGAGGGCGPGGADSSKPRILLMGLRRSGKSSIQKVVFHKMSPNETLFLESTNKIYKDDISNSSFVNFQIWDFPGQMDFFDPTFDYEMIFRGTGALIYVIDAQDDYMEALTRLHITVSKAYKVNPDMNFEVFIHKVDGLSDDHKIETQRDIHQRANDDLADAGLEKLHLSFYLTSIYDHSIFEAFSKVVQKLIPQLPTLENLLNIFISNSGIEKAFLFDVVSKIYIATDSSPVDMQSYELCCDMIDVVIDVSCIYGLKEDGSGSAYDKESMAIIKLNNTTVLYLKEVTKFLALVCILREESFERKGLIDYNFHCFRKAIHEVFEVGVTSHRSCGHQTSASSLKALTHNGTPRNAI

Results are given in words; binding and its absence hold for the method and conditions named. Binding seen in cells or lysates may run through a third protein. Some binding calls cover weakened binding; strength is not graded here.

This test addresses GST-RagB (UniProt Q5VZM2). The test is described as follows: pull-down; co-purification: GST-RagA or GST-RagB cotransfected with FLAG-RagC in HEK293T, lysis buffer A (0.3% CHAPS, 150 mM NaCl), GSH-Sepharose 2 h at 4 °C, eluted with 10 mM GSH.

Turning to FLAG-RagC (from UniProt Q9HB90 1-399), the binding entry was “binds”.
